No constants are given. Whether binding was seen depends on the method and setting. Where a sequence is shown, tags or fusion partners need not be part of it.
Biological target: RepA (rep type protein encoded by repA of shuttle vector pWM321, derived from plasmid pC2A), N-terminal His-tagged (Methanosarcina acetivorans) (UniProt P94911)
Assay: SEC; purified RepA-His6 on an ENrich SEC 650 column in His-tag buffer (50 mM NaH2PO4, 300 mM NaCl, pH 6.9), 0.5 mL/min, calibrated with the Bio-Rad gel filtration standard; both purified

binding: no binding
B1: RepA (rep type protein encoded by repA of shuttle vector pWM321, derived from plasmid pC2A), N-terminal His-tagged (protein, UniProt P94911 1-536)
chain: MSSDFSSRPGAVSYAPECRDFATCICTDGVLCPVRNKKNGVSICKYYSCPDFDFSKCSKYRPLKVGDFVLPAKGKRPAYCGRPFTYAVSENYNARKDLNSHCNTLSCPGCGILSELQHRFALVVILWTYALFSGQFPSWGFASMDFSRGVSVEAIRLFRRNLKDRLERWGVTAGTTIFHPYRIKPEITRAIRKLTGLKGNDDSEAFWNYIRDDHNEGNLNKIADLLNIEINSIYDCLILAPHFHFFIFPGNIRITGKNPKSKKRCKSDEYDIFIQRLSHKVNGKRQWELRSLMDIYKQVTYLYSHVGQLTDNRYGNIHIESRFGALFRWHPDKVVSSSGKLTFEQLIDTRTEVLNLINEGREVKLVYNGELKWEGQENDDTGWIPLTKLRDHFSGGRQALHAYLKEAKAVKPEYADYLQQLIARNNFYHNLKGRDGKNKVPKKWRKLWASPFKVDELPEFLKLEPAGSLLRVWFLEGLPDPPAGFLVVDSHQWEHDGCIIEESPEMPSNSLQKASEINYEELFTSLKSRSMMFGGD
